{"source": "PubChem BioAssay AID1508600", "about": "(Functional Genomics Laboratory (NCATS/FGL), 2020)", "note": "Out of some 53,000 sequences screened, about 3,700 (7%) were called active.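 The calls were made as follows: active = gene knockdowns whose robust z-score for IL-1 alpha signal is at least 2 or at most -2, so actives lie on both sides; inactive = the rest.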 Some of the results follow."}
{"test": "Components of the Cytosolic LPS Sensing Pathway: Gene Identification via Genome-wide siRNA Screen;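 also: robust z of the log signal after scaling to non-targeting control siRNA wells of the plate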", "conditions": "RAW264.7 macrophages, IL-1a HTRF, actives lie on both sides, screened at 100 nM (by protocol), cells primed 5 h with Pam3CSK4 first", "how_it_was_run": "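Supernatant IL-1a by HTRF from RAW264.7 cells primed with Pam3CSK4 (5 hours) and transfected with LipidA (24 hour) after 48h siRNA knockdown at 100 nM; cell viability checked with CellTiter-Glo.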"}
{"sequence": "GGAAUUCUAGACAAUCAAGTT against Ctso", "z-score": "inactive: 0.993"}
{"sequence": "GGCCAAGAAAAACUACUAUTT against Kcnk5", "z-score": "inactive: -0.706"}
{"sequence": "GCUAUUUUCGUCACUUUCUTT against Tssk1", "z-score": "inactive: 0.494"}
{"sequence": "GGAAAGAUCAUGGACAAGUTT against Dtna", "z-score": "active: 2.06"}
{"sequence": "CCGUUACAGUUAAAUUUACTT against Per3", "z-score": "inactive: 0.856"}
{"sequence": "CCUUGUGUAUGAAAUACUUTT against Taf1b", "z-score": "inactive: -0.282"}
{"sequence": "GGUUGGAUUAUGCAUAUUUTT against Serp1", "z-score": "inactive: 0.186"}
{"sequence": "GGCUAGGUAGACCAUAGAGTT against Nat8l", "z-score": "inactive: 0.375"}
{"sequence": "GGUGGUUCGAUAUGAGGCATT against Prom2", "z-score": "inactive: -1.64"}
{"sequence": "CCCAAUGACAAUAAAGACCTT against Mmp25", "z-score": "inactive: -0.936"}
{"sequence": "GGGAGUGGGAUUUUGCCUUTT against Sfn", "z-score": "inactive: 0.0269"}
{"sequence": "GUUACUUUGAUGUUGUCUATT against Pdgfrl", "z-score": "inactive: 0.817"}
{"sequence": "CCUUCAACUAUGGCAAAUATT against Cacul1", "z-score": "inactive: -0.241"}
{"sequence": "GGUAUUAAAGACUACUCCATT against Glrx5", "z-score": "inactive: 0.821"}
{"sequence": "GGAGUAUCUUAGGAGUGAATT against Ybey", "z-score": "inactive: -0.394"}
{"sequence": "UUGUUCAAGAGCUAGAGAUTT against Atg2a", "z-score": "inactive: 0.811"}
{"sequence": "GGCUCUUGGGAGAUUUAAATT against Sp5", "z-score": "inactive: 1.85"}
{"sequence": "GGACCGGUUUAUUUGGCGGTT against Mmp2", "z-score": "active: 3.43"}
{"sequence": "CCAAUCCAACAGCAUAUUUTT against Vkorc1", "z-score": "inactive: -0.742"}
{"sequence": "GGCAGCUUGUAAAAAUCCATT against Amer1", "z-score": "inactive: -1.28"}
{"sequence": "GCAAUAAUAGAAUGAGAAGTT against Ott", "z-score": "inactive: 0.00108"}
{"sequence": "GGCAAAAAGGGCAUUGUCCTT against Naip1", "z-score": "inactive: -0.946"}
{"sequence": "GGAUCUGAAUGACUUUGUGTT against Sowahb", "z-score": "inactive: 0.378"}
{"sequence": "GGGAGUUUUCAGACAUUCUTT against Lingo4", "z-score": "inactive: 1.12"}
{"sequence": "GGGCAAAAAAGGUCUAUUCTT against Rfpl4", "z-score": "inactive: 0.44"}
{"sequence": "GGUCAAAAAUCAAGUUUACTT against Ovol2", "z-score": "inactive: 0.162"}
{"sequence": "GGCUUAUUUUUCUUCAGUUTT against Ext1", "z-score": "inactive: -0.585"}
{"sequence": "GGAAAUUACUUUGAUACUCTT against Rfx3", "z-score": "inactive: 1.5"}
{"sequence": "GAGGAUUCUGUAGGUCUUCTT against Defb19", "z-score": "inactive: 0.28"}
{"sequence": "GGCUUUCUAUACGUGUGCUTT against Olfr1161", "z-score": "inactive: -1.41"}
{"sequence": "GGUGCCAAUGACAUAUUGGTT against H2-M10.5", "z-score": "inactive: 0.909"}
{"sequence": "GAUGUUCUUUGUCCACAUGTT against Olfr666", "z-score": "inactive: -0.325"}
{"sequence": "CCUUCAGCUUCCUUUUUACTT against Skint11", "z-score": "inactive: 1.05"}
{"sequence": "GAAGGAGAAGGAAGAGUUGTT against Cadps", "z-score": "inactive: 1.08"}
{"sequence": "CGAAGGCUUUUGAAUUCAATT against Pcdh17", "z-score": "inactive: 0.41"}
{"sequence": "CGCAUCAUAUUCUGAUUCCTT against Rmnd5b", "z-score": "inactive: 0.138"}
{"sequence": "GGCUGAGUCUACCAACAGUTT against Tns4", "z-score": "inactive: -1.91"}
{"sequence": "GGCCUUGCUUCGAUGUAGUTT against Gemin7", "z-score": "inactive: -0.206"}
{"sequence": "GCCCUACACCUGUAUUACATT against Tas1r3", "z-score": "inactive: -0.964"}
{"sequence": "GGAUAUUCGAGCAACCUUUTT against Pcdhb18", "z-score": "inactive: -0.571"}
{"sequence": "GGCAAUUCGAAUUUUGGUUTT against Rtraf", "z-score": "inactive: 0.891"}
{"sequence": "CCAUCUGAGAACAUCAUUGTT against Gm11507", "z-score": "inactive: 0.114"}
{"sequence": "GGCAAAGUUGUCCUAAGGUTT against Rab27b", "z-score": "active: 2.54"}
{"sequence": "GGCUGCUUCAGAUUUUCACTT against Naalad2", "z-score": "inactive: -0.0554"}
{"sequence": "GGCUUAAAUGCGUUCUACATT against Slc25a3", "z-score": "inactive: 0.0986"}
{"sequence": "GCCAAAUUAGGUGACACUATT against Rgcc", "z-score": "inactive: -1.71"}
{"sequence": "GAAGGCCAAUGAUCGGGAGTT against Neurog3", "z-score": "active: -2.1"}
{"sequence": "GGCCUUUCUAGAGCUGUGGTT against Rinl", "z-score": "inactive: -1.37"}
{"sequence": "GGCGGUGAUGGAAUGAACATT against Plod2", "z-score": "inactive: 0.706"}
{"sequence": "CCACAUUGUAGGCAACCAATT against Hpd", "z-score": "inactive: -1.06"}
{"sequence": "GCUAAUGGCAGAGUAACCUTT against Pcdhga1", "z-score": "inactive: 1.09"}
{"sequence": "GCCAGUUACGCGGACAUUUTT against Rasgrf2", "z-score": "inactive: -0.348"}
{"sequence": "GGAUAAGGUCCAGUACUUGTT against Mapk13", "z-score": "inactive: -1.32"}
{"sequence": "GCACAGGUGAGCUCUUUGATT against Nudt10", "z-score": "inactive: -1.12"}
{"sequence": "CCGUGGUUUCUACAGUGUUTT against Ppp4c", "z-score": "inactive: -0.535"}
{"sequence": "GGUAGAAGAUUCAAAAUCUTT against Canx", "z-score": "inactive: 0.465"}
{"sequence": "GGAGUGGUGUGUCAUUGAUTT against Impact", "z-score": "inactive: -0.663"}
{"sequence": "GGAAGAGGUCUUUAAUACATT against Kif4", "z-score": "active: 2.86"}
{"sequence": "GGACAAAAGACACAUGUUGTT against Miip", "z-score": "inactive: -0.674"}
{"sequence": "GCUUCUUAUGGUCACUUAATT against Asb12", "z-score": "inactive: 1.46"}
{"sequence": "GGCUCUACCUUAACCUAUATT against Aamdc", "z-score": "inactive: -0.563"}
{"sequence": "CGACUCUCCAUCCUUAACATT against Dlx4", "z-score": "inactive: -1.4"}
{"sequence": "GGCCUGUGACAUUCAAUGCTT against Tctn2", "z-score": "inactive: -0.422"}
{"sequence": "GGUGUCAGGGCAGUGUAAATT against Bach1", "z-score": "inactive: 0.749"}
{"sequence": "GGUAGAAACCUCUACUGUCTT against Tmem169", "z-score": "inactive: 0.363"}
{"sequence": "GAUUCUCAUCUCAAUAAGCTT against Serpinb9g", "z-score": "inactive: 0.439"}
{"sequence": "GGCCAAUGAUGAUAACAAATT against Ctnnd2", "z-score": "inactive: 1.34"}
{"sequence": "GCAUUUCGUACAGCAGAAATT against Pip4k2c", "z-score": "inactive: -0.691"}
{"sequence": "GGGCUUGUGGCUUUAGUAUTT against Ccdc184", "z-score": "inactive: 1.58"}
{"sequence": "GGGUUUUCCACGAUGGUUGTT against Phf24", "z-score": "inactive: -0.331"}
{"sequence": "GGUAUAUGAAAGAUUGUCATT against Vps26a", "z-score": "inactive: 0.213"}
{"sequence": "GGAUAAAGAAGGACUCAAATT against Tpbpb", "z-score": "active: -2.16"}
{"sequence": "GCCACAACUGGCACGUUACTT against Mbd3", "z-score": "inactive: -0.817"}
{"sequence": "GGGUCGAAAUUGGGAUCCATT against Vps45", "z-score": "inactive: 0.383"}
{"sequence": "CCAAAUGACAGCUAUGGCCTT against Gtf2ird2", "z-score": "inactive: -0.312"}
{"sequence": "GGAUAACUCCUUAUUUAACTT against Teddm3", "z-score": "inactive: 1.25"}
{"sequence": "GGAAUUCCAGACACCCAUCTT against Elof1", "z-score": "inactive: -0.69"}
{"sequence": "CCCAUGUUUAUGUUGCUGATT against Olfr467", "z-score": "inactive: 0.251"}
{"sequence": "GCUUUUGACACUUAUAUGATT against Ptk7", "z-score": "inactive: -0.299"}
{"sequence": "GCCCAAGUGUGAUAAAUGCTT against Ntn4", "z-score": "inactive: 0.874"}
{"sequence": "GCAUCUCGAUCAUAUCAUGTT against Pgm3", "z-score": "inactive: 1.28"}
{"sequence": "GGUUCUCGAAAUAAGAAUGTT against Mcm8", "z-score": "inactive: -0.121"}
{"sequence": "GGAAGUAUUACCCUCAAUUTT against Zfp212", "z-score": "inactive: -0.674"}
{"sequence": "GUGAAAGUCGGAUUCAGUGTT against Acat2", "z-score": "inactive: 0.377"}
{"sequence": "GGAAUAUUCUAUUCCCUUUTT against Trim25", "z-score": "inactive: 1.67"}
{"sequence": "GCCUGUCAUGGUUAUGACCTT against Shbg", "z-score": "inactive: -0.803"}
{"sequence": "GCAAAACCAUUUGAAAAUGTT against Negr1", "z-score": "inactive: 0.438"}
{"sequence": "GGAGAUGAAGCAAUGGCCCTT against Bmp15", "z-score": "inactive: 1.13"}
{"sequence": "GGCCAAGGUCAAUAACUCCTT against Rfc1", "z-score": "inactive: -0.755"}
{"sequence": "CCUUGUUGAGAUCAAAUUGTT against Ubn2", "z-score": "inactive: 1.53"}
{"sequence": "GGCAUUCCUAAUGACACGGTT against Dpep3", "z-score": "inactive: -1.7"}
{"sequence": "GGGAGAAUCUAACUAAGCCTT against Sirt7", "z-score": "inactive: 0.383"}
{"sequence": "GCAAUCACCAAAUCACUAGTT against Fstl1", "z-score": "inactive: -0.123"}
{"sequence": "GAGACAAUUGUAACAUUCUTT against Olfr176", "z-score": "inactive: 1.2"}
{"sequence": "GGUGGAUGGCUUCACGCAUTT against Calr3", "z-score": "inactive: -0.925"}
{"sequence": "GCUAGGGUCUUUGUUAUAUTT against A630023P12Rik", "z-score": "inactive: -0.771"}
{"sequence": "GGUCAGAAGUUAAUUUAUGTT against Rad23b", "z-score": "inactive: -0.413"}
{"sequence": "GCCUAAGAAGGAUAGUAUUTT against Taf5", "z-score": "inactive: 0.0415"}
{"sequence": "GGAAAAAUGGGAGUUUGAATT against Ccdc83", "z-score": "inactive: -0.291"}
{"sequence": "GGAAAACCUCAAACCUAACTT against Oas2", "z-score": "inactive: 0.12"}
{"sequence": "GGUCGUAUUGCGCUAUAGCTT against Sh2b3", "z-score": "inactive: -0.364"}
{"sequence": "AAGGUGCAGAGUUACACGUTT against H2-T10", "z-score": "inactive: 1.17"}
{"sequence": "GGAGUGGAUGUGAUUAUCATT against Dao", "z-score": "inactive: -0.849"}
{"sequence": "CCAGAGAUUGGACACAUCUTT against Vps33b", "z-score": "inactive: -1.67"}
{"sequence": "CCCUAGCAAAGCUACUUUCTT against Nhej1", "z-score": "inactive: -1.67"}
{"sequence": "GGUUUAGCUGCUGACUUAATT against Strn3", "z-score": "inactive: 1.03"}
{"sequence": "CCAAGUGACUACCAUGUCATT against Prss40", "z-score": "inactive: -1.75"}
{"sequence": "GCUAUUCCAACAUGAAUCCTT against Klk1b21", "z-score": "inactive: 0.712"}
